Experimental data reported in patent publication US10702592B2, “Peptides and combination of peptides for use in immunotherapy against NHL and other cancers” (Immatics Biotechnologies GmbH, priority 2016, dated 2020).

Experiments:
NHL samples = test: Identification and label-free LC-MS quantitation of HLA-presented peptides: presentation profile/score, NHL vs normal tissues; parameters: species or system human; key: very highly over-presented on tumors compared to a panel of normal tissues (+++); highly over-presented on tumors compared to a panel of normal tissues (++); over-presented on tumors compared to a panel of normal tissues (+); conditions: NHL tumors compared to a panel of normal tissues
[1] = tested on: other tumor types (tumor samples vs normal tissues); test: LC-MS detection / over-presentation of peptides on additional tumor types; parameters: species or system human; conditions: for Other relevant organs/diseases: additional tumor types on which the peptide was found: over-presented on more than 5% of measured tumor samples, or presented on more than 5% with ratio of geometric means tumor vs normal tissues larger than 3; for Other relevant organs / diseases (additional tumor types with over-presentation): over-presented on >5% of measured tumor samples, or presented on >5% with ratio of geometric means tumor vs normal >3

| Substance | Peptide Presentation (NHL samples) | Other relevant organs/diseases [1] | Other relevant organs / diseases (additional tumor types with over-presentation) [1] |
| --- | --- | --- | --- |
| 36 (VILDIPLLFET; listed as Homo sapiens) [compound 36] | +++ | CLL, BRCA, Melanoma, Uterine Cancer | SCLC, AML, HNSCC |
| 263 (GLMDNEIKV; listed as Homo sapiens) [compound 263] | +++ | NSCLC, RCC, HCC, PC, Melanoma, Gallbladder Cancer, Bile Duct Cancer | HNSCC |
| 291 (KIIDTAGLSEA; listed as Homo sapiens) [compound 291] | +++ | CLL | HNSCC |
| 119 (ELCDIILRV; listed as Homo sapiens) [compound 119] | +++ | Melanoma |  |
| 19 (VLEAILPLV; listed as Homo sapiens) [compound 19] | +++ | CLL |  |
| 8 (ALYAVIEKA; listed as Homo sapiens) [compound 8] | +++ | CLL, AML |  |
| 194 (SLAPFDREPFTL; listed as Homo sapiens) [compound 194] | +++ | NSCLC | Melanoma, Gallbladder Cancer, Bile Duct Cancer, HNSCC |
| 116 (SLLDNLLTI; listed as Homo sapiens) [compound 116] | + | HCC, CLL, AML, Melanoma |  |
| 212 (FLIGQGAHV; listed as Homo sapiens) [compound 212] | + | CLL, AML, Melanoma | HCC |
| 302 (SLAELDEKISA; listed as Homo sapiens) [compound 302] | + | NSCLC, CLL, Melanoma, Esophageal Cancer, Urinary bladder cancer | Uterine Cancer, HNSCC |
| 290 (IASPVIAAV; listed as Homo sapiens) [compound 290] | +++ | HCC, PC, CLL, AML, BRCA, Melanoma, Gallbladder Cancer, Bile Duct Cancer | NSCLC, SCLC, CRC, Uterine Cancer |
| 225 (GTYQDVGSLNIGDV; listed as Homo sapiens) [compound 225] | +++ | CLL |  |
| 164 (SLFDGAVISTV; listed as Homo sapiens) [compound 164] | +++ | SCLC, Uterine Cancer |  |
| 50 (LLLDGLIYL; listed as Homo sapiens) [compound 50] | + | CLL |  |
| 243 (GLPDLDIYL; listed as Homo sapiens) [compound 243] | +++ | HCC, CLL, AML, Melanoma, Uterine Cancer |  |
| 190 (GLIELVDQL; listed as Homo sapiens) [compound 190] | ++ | HCC, CLL, AML, Melanoma, Uterine Cancer |  |
| 56 (GLQDLLFSL; listed as Homo sapiens) [compound 56] | ++ | CLL, AML | Melanoma |
| 84 (FLQELQLEHA; listed as Homo sapiens) [compound 84] | +++ | CLL |  |

| Substance | Peptide Presentation (NHL samples) | Other relevant organs/diseases [1] | Other relevant organs / diseases (additional tumor types with over-presentation) [1] |
| --- | --- | --- | --- |
| 64 (FLVEVSNDV; listed as Homo sapiens) [compound 64] | ++ | CLL, Uterine Cancer |  |
| 226 (GVIDPVPEV; listed as Homo sapiens) [compound 226] | + | HCC, CLL, AML, Melanoma, OC, Gallbladder Cancer, Bile Duct Cancer | HNSCC |
| 86 (GLATIRAYL; listed as Homo sapiens) [compound 86] | +++ | RCC, Melanoma, Uterine Cancer |  |
| 296 (FILEPLYKI; listed as Homo sapiens) [compound 296] | ++ | CLL, Esophageal Cancer, OC, Uterine Cancer | AML |
| 249 (VLLESLVEI; listed as Homo sapiens) [compound 249] | +++ | Melanoma, Gallbladder Cancer, Bile Duct Cancer |  |
| 303 (FVWEASHYL; listed as Homo sapiens) [compound 303] | ++ | NSCLC, CLL, Esophageal Cancer, Uterine Cancer, Gallbladder Cancer, Bile Duct Cancer | AML, HNSCC |
| 180 (GILQLVESV; listed as Homo sapiens) [compound 180] | ++ | HCC, CLL, AML, Melanoma, OC |  |
| 115 (LLIDIIHFL; listed as Homo sapiens) [compound 115] | +++ |  | AML |
| 191 (GLSDISAQV; listed as Homo sapiens) [compound 191] | +++ | CLL, Melanoma, Esophageal Cancer, OC | AML |
| 128 (KLFDASPTFFA; listed as Homo sapiens) [compound 128] | ++ | CLL, Gallbladder Cancer, Bile Duct Cancer | OC, HNSCC |
| 259 (TVLDGLEFKV; listed as Homo sapiens) [compound 259] | +++ | SCLC, CLL, AML, UMelanoma, terine Cancer | HNSCC |
| 46 (FLVEEIFQT; listed as Homo sapiens) [compound 46] | ++ | SCLC, Gallbladder Cancer, Bile Duct Cancer | AML |
| 138 (NLINNIFEL; listed as Homo sapiens) [compound 138] | + | CLL, AML, Urinary bladder cancer |  |
| 21 (ALFKEAYSL; listed as Homo sapiens) [compound 21] | +++ | Esophageal Cancer |  |
| 222 (FLIETGTLL; listed as Homo sapiens) [compound 222] | + | CLL, BRCA, Uterine Cancer |  |
| 171 (TLLDVISAL; listed as Homo sapiens) [compound 171] | +++ | AML | HNSCC |
| 83 (FLMDDNMSNTL; listed as Homo sapiens) [compound 83] | +++ | Melanoma |  |
| 174 (VLVEITDVDFAA; listed as Homo sapiens) [compound 174] | +++ | Melanoma |  |
